Assay results from patent US20220118104A1 (IntoCell, Inc., priority 2019, published 2022).

experiment: peptide synthesis; settings: conjugation step

Substance	conjugation yield [%]
Int-T6-1	25
Int-T5-1	29
Int-T5-2	38
Int-T1-a	72
